Test: F-18 labeling (Al18F labeling efficiency by ITLC)
Details: ^18F labeling with Al^18F, 0.1 M sodium acetate buffer, 110° C., 10 min; ITLC-SG, 75% MeCN

Structure (SMILES) | Labeling efficiency(%)
O=C(O)CCN1CCN(CC(=O)O)CCN(CC(=O)O)CC1 [Comp. Ex. 2, 4,7-bis(tert-butoxycarbonylmethyl)-1,4,7-triazonanane-1-propionic acid] | 23.6
O=C(O)CCC(=O)N1CCN(CC(=O)O)CCN(CC(=O)O)CC1 [Comp. Ex. 5, 4,7-bis(carboxymethyl)-1,4,7-triazononane-1-oxo-butyric acid] | 32.9
O=C(O)CCCN1CCN(CC(=O)O)CCN(CC(=O)O)CC1 [Example 1, 4,7-bis(carboxymethyl)-1,4,7-triazonane-1-butyric acid] | 86.1
O=C(O)CCCCN1CCN(CC(=O)O)CCN(CC(=O)O)CC1 [Example 2, 4,7-bis(carboxymethyl)-1,4,7-triazonane-1-pentanoic acid] | 77.8
O=C(O)CN1CCN(CC(=O)O)CCN(Cc2ccccc2)CC1 [NO2A-Bz, 1-benzyl-4,7-bis(carboxymethyl)-1,4,7-triazonane] | 83.0
O=C(O)CN1CCN(CC(=O)O)CCN(CC(=O)O)CC1 [NOTA] | 10.9

— patent US9012604B2, “Triazanonane derivatives or pharmaceutically acceptable salt thereof for enhanced fluorine-18 labeling” (Snur & DB Foundation, priority 2011, dated 2015)
